Data from US20090202571A1, “Bioreductively-activated prodrugs” (HOPNIC LABORATORY CO., LTD., priority 2004, published 2009).

Assay: Radiolysis: release of drugs from prodrugs after reduction
Settings: isopropanol/water 50:50, nitrous oxide saturated, 60Co irradiation 3.9 Gy min^−1; released drug by HPLC

Molecule | G (radiation chemical yield, G-value) of drug released
9-[(4,6-O-Ethylidene-β-D-glucopyranosyl)oxy]-5,8,8a,9-tetrahydro-5-(4-(1-(5-nitrothien-2-yl)ethoxy)-3,5-dimethoxyphenyl)furo[3′,4′:6,7]naphtha[2,3-d]-1,3-dioxol-6(5aH)-one [Example 1] | 0.32 µmol/J
COc1cc([C@@H]2c3cc4c(cc3[C@@H](OC3OC5COC(c6cccs6)OC5C(O)C3O)[C@H]3COC(=O)[C@H]23)OCO4)cc(OC)c1OCc1ccc([N+](=O)[O-])s1 (stereo partly drawn) [Example 3, 9-[(4,6-O-(Thien-2-ylmethylidene-β-D-glucopyranosyl)oxy]-5,8,8a,9-tetrahydro-5-(4-(5-nitrothien-2-yl)methoxy)-3,5-dimethoxyphenyl)furo[3′,4′:6,7]naphtha[2,3-d]-1,3-dioxol-6(5aH)-one] | 0.57 µmol/J
